Results deposited as PubChem BioAssay AID1259424 (University of Nebraska Medical Center, 2018)
Purpose: 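Rank knockdowns across the genome by resemblance to the KSR1 depletion profile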 (primary screen). Cell system: human HCT116 colon cancer cells. Knock-down reagent: siRNA pool against human genes, 50 nM. Read-out: 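Log2 levels of six mRNAs (branched-DNA multiplex), adjusted by two reference genes and the non-targeting median, then scored against the average KSR1 knockdown pattern as Pearson r and euclidean distance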. Reading the numbers: mean correlation with KSR1 profile: higher = expression change more like KSR1 knockdown.
Shown is a random part of about 14,000 deposited reagents. 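Higher correlation or smaller distance means closer resemblance to KSR1 loss; control wells, including KSR1 knockdowns, recur on many plates.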 Not all columns of the deposit are shown. Not given: the time to read-out.

gene symbol	PubChem SID	mean correlation with KSR1 profile
PRPH2	SID363991654	0.535
F11	SID363991464	-0.267
SMUG1	SID363998741	-0.481
CEACAM4	SID363993033	-0.405
PTP4A2	SID363994578	0.372
RNASE4	SID363994089	0.685
ZNF566	SID364004215	0.944
PRKAA1	SID363997074	0.273
SRPRB	SID364002090	0.205
ZBP1	SID364003429	0.765
BEX3	SID363998802	-0.303
LRP1	SID363993517	-0.136
NUP42	SID363997985	0.427
SLC19A3	SID364003342	0.141
GPC3	SID363995463	-0.275
CD93	SID363998024	0.384
FANCM	SID364005204	-0.839
CDK2AP2	SID363996725	-0.347
GDF15	SID363995815	0.581
ARPC4	SID363996604	-0.0316
ZNF557	SID364002809	0.83
HUS1	SID363995484	0.034
APIP	SID363999751	-0.0582
SETMAR	SID363997312	-0.38
CDC42EP2	SID363997548	-0.555
RAD9A	SID363995555	0.336
DUSP21	SID364002309	0.116
TAS1R2	SID364004694	0.17
RABIF	SID363994027	0.531
SLC35B4	SID364004204	0.278
PCDHB14	SID364001261	0.575
SYPL1	SID363997525	0.419
ANKRD28	SID363999359	-0.221
GPRC5D	SID364001153	-0.0398
CRTC1	SID363999415	-0.111
CPXCR1	SID364004295	0.0437
TUBGCP6	SID364001711	0.462
BATF3	SID364001163	0.364
KIRREL3	SID364004038	-0.155
FOXD4	SID364005013	-0.367
INKA2	SID364001399	-0.5
EPB42	SID363991455	-0.275
POPDC1	SID363997802	-0.728
RPS7	SID363992308	-0.0799
PTGS1	SID363992246	-0.254
PCNX4	SID364002480	-0.531
DSC2	SID363995891	-0.103
PRDM7	SID364004427	0.502
NUP214	SID363996021	-0.179
PAH	SID363991610	-0.567

5 entries already listed, arranged by “mean correlation with KSR1 profile”, low to high.
gene symbol	PubChem SID	mean correlation with KSR1 profile
POPDC1	SID363997802	-0.728
PCNX4	SID364002480	-0.531
EPB42	SID363991455	-0.275
PTGS1	SID363992246	-0.254
RPS7	SID363992308	-0.0799
